Data as given in PubChem BioAssay AID1259308 (NCATS, 2017).
Screen: 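Genes whose loss raises luciferase production in HEK293 cells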 (primary screen). Cells: human HEK293 embryonic kidney cells stably expressing firefly luciferase (HEK-CMV-Luc2-Hygro). Reagents: single siRNA against human genes, 0.8 pmol siRNA per well. Timing: 72 h. Measured: 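Reporter luminescence and viable-cell signal on separate replicate plates, given as percent of non-targeting control and median/MAD z-scores, plus per-cell luciferase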. Scale: total luciferase, z-score and total luciferase, % of control: higher = more reporter protein produced; luciferase per cell, z-score: higher = more reporter output per viable cell; viable cells, % of control: higher = more viable cells. Call rule: 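Active when the median/MAD z-score for overall luciferase is greater than 3; a gene was taken forward for validation with new siRNAs if at least two of its three siRNAs passed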. Calls: active = raised luciferase; inactive = no rise.
This is one part, drawn at random, of about 59,000 reagents tested. Of all reagents, about 1,510 (2.6%) are marked active. 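Calls use total luciferase alone and ignore viability, so some active siRNAs may act by altering cell number.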 A number with no mark means an inactive call. Reagents against one gene are numbered here.

no.	gene symbol	siRNA no.	total luciferase, z-score	total luciferase, % of control	luciferase per cell, z-score	viable cells, % of control
1	USP26	1	2.32	128	1.44	98
2	USP26	2	0.278	87.4	0.148	93.9
3	USP26	3	0.604	93.9	0.026	104
4	ESRRG	1	1.66	115	0.497	113
5	ESRRG	2	1.87	119	0.572	115
6	ESRRG	3	-0.659	68.8	-0.469	87
7	MYBPC1	1	0.822	98.2	0.662	92.2
8	MYBPC1	2	0.987	102	0.621	96.3
9	MYBPC1	3	-0.217	77.6	-0.39	96
10	COL24A1	1	1.72	116	1.91	78.5
11	COL24A1	2	0.226	86.4	0.315	88.8
12	COL24A1	3	-0.226	77.4	-0.377	95.5
13	CORO2B	1	0.153	84.9	-0.166	99.1
14	CORO2B	2	0.132	84.5	-0.278	102
15	CORO2B	3	-0.488	72.2	0.3	74.5
16	NENF	1	-1.22	57.7	-0.456	72.7
17	NENF	2	-2.07	40.8	-1.86	74.4
18	NENF	3	-0.464	72.7	-0.58	94.6
19	XTBD1P1	1	-0.432	73.3	0.644	69.1
20	XTBD1P1	2	-0.787	66.2	0.253	69.2
21	XTBD1P1	3	0.0541	83	0.505	81.2
22	SUPT20H	1	1.7	116	1.35	90.8
23	SUPT20H	2	-1.71	47.9	-1.35	76.3
24	SUPT20H	3	2.72	136	2.45	79.6
25	RASAL3	1	-2.11	40	-2.77	92.6
26	RASAL3	2	0.789	97.6	0.373	98.8
27	RASAL3	3	-0.0603	80.7	1.2	65.7
28	NLN	1	0.295	87.8	0.372	88.9
29	NLN	2	0.685	95.5	2.05	62.2
30	NLN	3	0.181	85.5	-0.58	111
31	ZFR	1	0.24	86.7	0.943	75.5
32	ZFR	2	-0.00329	81.8	-0.463	103
33	ZFR	3	-0.731	67.4	-0.533	86.6
34	ETFA	1	0.753	96.9	0.017	108
35	ETFA	2	-0.425	73.4	-1.12	110
36	ETFA	3	-0.179	78.3	-0.0692	89.1
37	SLC22A13	1	1.35	109	1.78	76
38	SLC22A13	2	-0.499	72	0.0831	78.7
39	SLC22A13	3	-1	62	-0.726	83.9
40	NECTIN2	1	1.62	114	1.87	78.1
41	NECTIN2	2	-0.463	72.7	-1.21	112
42	NECTIN2	3	-0.0657	80.6	-0.724	109
43	SFRP4	1	2.01	122	1.3	96.7
44	SFRP4	2	0.509	92	1.46	70
45	SFRP4	3	1.18	105	1.32	83

Next part, starting with the last 3 of the part before.
no.	gene symbol	siRNA no.	total luciferase, z-score	total luciferase, % of control	luciferase per cell, z-score	viable cells, % of control
43	SFRP4	1	2.01	122	1.3	96.7
44	SFRP4	2	0.509	92	1.46	70
45	SFRP4	3	1.18	105	1.32	83
46	CRELD1	1	0.927	100	0.955	87.2
47	CRELD1	2	0.375	89.3	-0.313	108
48	CRELD1	3	0.586	93.5	0.571	89.9
49	TMEM225	1	-0.619	69.6	-0.419	86.8
50	TMEM225	2	-0.58	70.4	-0.442	88.3
51	TMEM225	3	0.361	89.1	-0.16	104
52	WDR54	1	-1.37	54.6	-1.28	85.5
53	WDR54	2	0.0412	82.7	-0.359	102
54	WDR54	3	0.729	96.4	-0.153	112
55	RFC3	1	0.0771	83.4	-0.549	108
56	RFC3	2	1.51	112	0.113	121
57	RFC3	3	1.09	104	1.16	85.4
58	SPDL1	1	-1.59	50.3	-0.557	65.1
59	SPDL1	2	-0.616	69.6	-0.578	90.6
60	SPDL1	3	-0.579	70.4	0.428	70.2
61	XKR4	1	-0.606	69.8	-0.773	95.6
62	XKR4	2	-0.274	76.4	-0.78	105
63	XKR4	3	-0.432	73.3	-0.926	105
64	NDST2	1	-1.07	60.7	-1.48	100
65	NDST2	2	0.15	84.9	-0.568	110
66	NDST2	3	2.13	124	0.837	111
67	ACSM3	1	-0.364	74.6	-0.917	106
68	ACSM3	2	-0.22	77.5	-0.342	94.8
69	ACSM3	3	-0.657	68.8	-0.963	99.1
70	LOC728877	1	-0.43	73.3	-0.201	86.4
71	LOC728877	2	0.533	92.5	1.13	76.8
72	LOC728877	3	-0.665	68.7	-0.624	90.4
73	AXIN2	1	2.36	129	0.743	118
74	AXIN2	2	-0.595	70.1	-1.01	102
75	AXIN2	3	-0.384	74.3	-0.641	98.2
